Reference: the supplement of paper PMC8256030
Where “and” joins values, the source holds several entries; their conditions need not be identical. Equal values may be shown once. Some of the results follow. Single values are uncertain here, since repeats match poorly.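 HEK293T cells were given each compound shortly before transfection with a reporter in which red mCherry is followed by the SARS-CoV-2 frameshift element and then GFP in the −1 frame, so GFP appears only after frameshifting.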

What follows are molecules tested on HEK293T (assay: percent viability (nuclei count) relative to control; higher = more viable cells). Settings: 10 µM; 24 h.

Structure (SMILES)	percent viability
CCOc1ccc(/N=C(\C)Nc2ccc(OCC)cc2)cc1 [phenacaine]	115%
CC1(C)S[C@@H]2[C@H](NC(=O)COc3ccccc3)C(=O)N2[C@H]1C(=O)O	92%
COc1ccc2cc(CCC(C)=O)ccc2c1 [nabumetone]	207% and 343%
C=CC[C@@H]1/C=C(\C)C[C@H](C)C[C@H](OC)[C@H]2O[C@@](O)(C(=O)C(=O)N3CCCC[C@H]3C(=O)O[C@H](/C(C)=C/[C@@H]3CC[C@@H](O)[C@H](OC)C3)[C@H](C)[C@@H](O)CC1=O)[C@H](C)C[C@@H]2OC [Tacrolimus]	388%
